From article PMC7647994 come the findings set out here.

Protein sequences, listed by entry. Tags and fused reporters are not part of them. Residues count along the entry.
UniProt O76031, residues 57-633: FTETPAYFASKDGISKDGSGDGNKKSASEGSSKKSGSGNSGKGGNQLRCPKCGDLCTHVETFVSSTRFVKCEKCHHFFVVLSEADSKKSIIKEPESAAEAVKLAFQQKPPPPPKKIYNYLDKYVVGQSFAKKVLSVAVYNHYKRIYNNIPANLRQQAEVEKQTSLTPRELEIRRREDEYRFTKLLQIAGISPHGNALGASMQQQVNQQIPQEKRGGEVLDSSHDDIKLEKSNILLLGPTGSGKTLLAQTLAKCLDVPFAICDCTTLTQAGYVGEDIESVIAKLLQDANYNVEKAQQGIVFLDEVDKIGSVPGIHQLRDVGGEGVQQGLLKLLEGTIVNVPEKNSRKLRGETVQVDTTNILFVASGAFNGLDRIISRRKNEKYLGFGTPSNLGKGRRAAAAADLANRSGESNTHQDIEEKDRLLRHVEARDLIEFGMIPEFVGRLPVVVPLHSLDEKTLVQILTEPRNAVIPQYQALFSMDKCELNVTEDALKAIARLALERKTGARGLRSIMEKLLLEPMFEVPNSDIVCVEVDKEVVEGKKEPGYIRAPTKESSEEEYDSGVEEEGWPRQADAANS

These are yes or no findings as the source states them, for the method shown. For some assays here: In cells and extracts the contact can be indirect. Some entries that bind do so weakly or less than the wild type. For some assays here: Where a sequence is shown, tags or fusion partners need not be part of it.

The target of assay [1] is CLPX, endogenous (human (endogenous in HeLa)) (UniProt O76031). The assay is described as follows: co-IP; endogenous proteins from detergent-solubilised HeLa mitochondria; anti-PDIP38 or anti-CLPX antibodies covalently attached to protein A sepharose; IP buffer pH 7.5, 100 mM KCl, 0.5% Triton X-100, 10 mM ATP, 1 h at 4 °C; preimmune serum as control.
Another assay deals with CLPP (human), Q16740. The assay is described as follows: AUC; fluorescence detected sedimentation velocity (FD-AUC); GFP-PDIP38 50 nM, CLPX_(TRAP) 500 nM, CLPP 2.8 µM; 50 mM Tris-HCl pH 8.0, 100 mM KCl, 20 mM MgCl2, 5 mM ATP, 10 °C; both purified. Conditions: remark: other sources report otherwise.

B1: Polymerase δ interacting protein of 38 kDa (PDIP38), endogenous (protein, UniProt Q9Y2S7 52-368)
chain: SSRNRPEGKVLETVGVFEVPKQNGKYETGQLFLHSIFGYRGVVLFPWQARLYDRDVASAAPEKAENPAGHGSKEVKGKTHTYYQVLIDARDCPHISQRSQTEAVTFLANHDDSRALYAIPGLDYVSHEDILPYTSTDQVPIQHELFERFLLYDQTKAPPFVARETLRAWQEKNHPWLELSDVHRETTENIRVTVIPFYMGMREAQNSHVYWWRYCIRLENLDSDVVQLRERHWRIFSLSGTLETVRGRGVVGREPVLSKEQPAFQYSSHVSLQASSGHMWGTFRFERPDGSHFDVRIPPFSLESNKDEKTPPSGLHW
With B1, the binding result in assay [1] is “binds”.

B2: GFP-PDIP38 fusion protein, Q9Y2S7 52-368 (protein)
chain: SSRNRPEGKVLETVGVFEVPKQNGKYETGQLFLHSIFGYRGVVLFPWQARLYDRDVASAAPEKAENPAGHGSKEVKGKTHTYYQVLIDARDCPHISQRSQTEAVTFLANHDDSRALYAIPGLDYVSHEDILPYTSTDQVPIQHELFERFLLYDQTKAPPFVARETLRAWQEKNHPWLELSDVHRETTENIRVTVIPFYMGMREAQNSHVYWWRYCIRLENLDSDVVQLRERHWRIFSLSGTLETVRGRGVVGREPVLSKEQPAFQYSSHVSLQASSGHMWGTFRFERPDGSHFDVRIPPFSLESNKDEKTPPSGLHW
In the case of B2, in the assay with CLPP (human), Q16740, the binding entry is “no binding (tested: GFP-PDIP38 50 nM, CLPP 2.8 µM)”.
